Data as given in PubChem BioAssay AID1259300 (Sanger Institute, 2017)
Aim: 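siRNA screen of kinases and common colorectal cancer mutant genes, alone or with drugs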 (primary screen). Cells: HCT15 colorectal cancer cells. Reagents: siRNA pool against human genes. Treatment: anchor drug or DMSO vehicle added 24 h after seeding: BYL719 1 µM, cetuximab 5 µg/ml, trametinib 10 nM; drug doses chosen to barely affect viability alone. Measured: 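Replicate-mean viability relative to non-targeting pool control with robust z-score for knock-down without drug; per-drug synergy scores for BYL719 (1 µM), cetuximab (5 µg/ml), trametinib (10 nM)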. Direction: viability z-score, siRNA alone: higher = more viable cells after knock-down; viability vs non-targeting, siRNA alone: higher = more viable cells; synergy score with BYL719 and synergy score with cetuximab and synergy score with trametinib: higher = stronger synergy of knock-down with drug. Call rule: 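Called active (essential) if viability z-score with knock-down alone falls below -3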. Meaning of the calls: active = essential: knock-down alone lowers viability (z below -3); inactive = no strong viability loss with knock-down alone.
Here is a random part of 794 deposited reagents. Of all reagents, 18 (2.3%) are marked active. 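Calls rest on knock-down alone, not drug synergy; depositor treated synergy scores above 0.15 as synergistic; drug doses alone had little viability effect.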 A number with no mark means an inactive call. No viability above 1 is reported: the scale is capped. The record does not give: the amount of reagent, the time to read-out.

target	viability z-score, siRNA alone	viability vs non-targeting, siRNA alone	synergy score with BYL719	synergy score with cetuximab	synergy score with trametinib
CDC42BPA (CDC42 binding protein kinase alpha)	0.625	1	0.156	0.1	0.0114
NEK3 (NIMA related kinase 3)	0.511	0.992	0.0588	0.0942	0.0798
STK3 (serine/threonine kinase 3)	0.321	0.978	0.162	0.0173	-0.0516
ERBB4 (erb-b2 receptor tyrosine kinase 4)	0.625	1	0.26	0.0187	0.0307
CKB (creatine kinase B)	0.18	0.968	-0.0156	-0.0201	-0.0523
TP53RK (TP53 regulating kinase)	0.625	1	0.298	0.116	0.0799
NME5 (NME/NM23 family member 5)	0.625	1	0.131	0	0.0221
INSRR (insulin receptor related receptor)	0.625	1	0.0228	0	-0.0984
FGFR1 (fibroblast growth factor receptor 1)	0.625	1	0.216	0.044	-0.0439
PTGS1 (prostaglandin-endoperoxide synthase 1)	-0.616	0.91	0.129	0.0925	0.00858
HASPIN (histone H3 associated protein kinase)	0.528	0.993	0.143	0.0808	0.0238
PSKH2 (protein serine kinase H2)	0.625	1	0.213	0.127	-0.0984
MED24 (mediator complex subunit 24)	0.625	1	0.135	0.0689	-0.00417
GUCY2D (guanylate cyclase 2D, retinal)	-5.62 (active)	0.546	-0.0392	0.088	-0.129
PRKCD (protein kinase C delta)	0.0362	0.957	0.154	0.0711	-0.0221
ALPK3 (alpha kinase 3)	0.224	0.971	0.0674	0.0635	-0.0432
MAK (male germ cell associated kinase)	0.625	1	0.0753	0.0906	-0.0863
PKMYT1 (protein kinase, membrane associated tyrosine/threonine 1)	0.233	0.972	0.186	-0.0285	-0.000157
ITPK1 (inositol-tetrakisphosphate 1-kinase)	0.209	0.97	0.133	0.083	-0.0975
CSF1R (colony stimulating factor 1 receptor)	0.222	0.971	-0.014	0.118	0.029
PFKFB3 (6-phosphofructo-2-kinase/fructose-2,6-biphosphatase 3)	-2.06	0.804	0.102	0.00236	-0.0334
EPHB2 (EPH receptor B2)	0.625	1	-0.0374	0.0415	-0.0562
PFKM (phosphofructokinase, muscle)	-0.144	0.944	0.0125	0.0244	0.216
CILK1 (ciliogenesis associated kinase 1)	0.625	1	0.111	0.0262	0.113
NTRK1 (neurotrophic receptor tyrosine kinase 1)	0.625	1	0.23	0.118	0.0992
NUP62 (nucleoporin 62)	-1.44	0.85	0.182	0.00227	0.0533
TRPM7	0.0437	0.958	0.135	0.0844	-0.0944
SIK3 (SIK family kinase 3)	0.625	1	0.15	0.021	-0.0368
IKBKG	-0.406	0.925	0.162	0.0245	-0.166
TRIM27 (tripartite motif containing 27)	0.625	1	0.167	0.0892	0.0322
CPNE3 (copine 3)	-0.469	0.92	0.0935	-0.0795	-0.128
TSSK6 (testis specific serine kinase 6)	0.466	0.988	0.189	0.0333	-0.0194
COMMD3 (COMM domain containing 3)	-0.386	0.926	0.164	0.0379	-0.161
NME1 (NME/NM23 nucleoside diphosphate kinase 1)	-0.656	0.907	-0.0303	-0.0932	-0.115
EPHA8 (EPH receptor A8)	0.477	0.989	0.00233	-0.0107	-0.108
GK (glycerol kinase)	0.625	1	0.212	0.0648	-0.0251
PRKAR2A	0.222	0.971	0.0408	0.0486	0.0656
POLR2B (RNA polymerase II subunit B)	-5.56 (active)	0.55	0.138	0.21	-0.00322
PAK6 (p21 (RAC1) activated kinase 6)	-0.242	0.937	0.206	-0.0434	0.0169
MAP2K6 (mitogen-activated protein kinase kinase 6)	0.197	0.969	0.293	0.0497	0.086
MOK (MOK protein kinase)	-0.677	0.905	0.0582	-0.0947	-0.183
PDK2 (pyruvate dehydrogenase kinase 2)	0.625	1	0.113	0	0.0259
ACSL6 (acyl-CoA synthetase long chain family member 6)	0.625	1	0.0504	0	-0.0894
PI4KB (phosphatidylinositol 4-kinase beta)	0.625	1	0.0574	0	-0.00158
CDKN1C (cyclin dependent kinase inhibitor 1C)	-0.23	0.938	0.162	-0.0293	-0.151
ADCK5 (aarF domain containing kinase 5)	0.445	0.987	0.0953	0.0828	0.0715
STK24 (serine/threonine kinase 24)	-0.198	0.94	0.134	-0.0599	-0.152
PASK (PAS domain containing serine/threonine kinase)	-0.088	0.948	0.16	0.0718	0.192
SMC1A (structural maintenance of chromosomes 1A)	0.625	1	0.362	0.157	-0.0319
TNIK (TRAF2 and NCK interacting kinase)	0.625	1	0.24	0	-0.0641

Reformatted: results already given.
target | viability z-score, siRNA alone | viability vs non-targeting, siRNA alone | synergy score with BYL719 | synergy score with cetuximab | synergy score with trametinib
INSRR (insulin receptor related receptor) | 0.625 | 1 | 0.0228 | 0 | -0.0984
FGFR1 (fibroblast growth factor receptor 1) | 0.625 | 1 | 0.216 | 0.044 | -0.0439
PTGS1 (prostaglandin-endoperoxide synthase 1) | -0.616 | 0.91 | 0.129 | 0.0925 | 0.00858
HASPIN (histone H3 associated protein kinase) | 0.528 | 0.993 | 0.143 | 0.0808 | 0.0238
PSKH2 (protein serine kinase H2) | 0.625 | 1 | 0.213 | 0.127 | -0.0984
